Data: the supplement of paper PMC4604168 (melanoma cell lines)
Some of the results follow. Repeats are few or missing, and single values can be far off.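 Cells were imaged in 1,536-well plates, and nuclei stained with an antibody against cleaved PARP were counted against all DNA-stained nuclei to give the apoptosis fraction. Screening doses were chosen to leave most cells alive, and resting and induced cleaved-PARP levels differ strongly between cell lines.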

How the values were obtained:
Assay in all cases: cleaved PARP positive nuclei fraction relative to DMSO control; melanoma cells; higher = more apoptosis
Details in all cases: library dose: low library concentration; 72 h
501Mel = tested on: 501Mel
A101D = tested on: A101D
A2058 = tested on: A2058
A375 = tested on: A375
C32 = tested on: C32
CBRC008 = tested on: CBRC008 (line from a melanoma biopsy)
CBRC014 = tested on: CBRC014 (line from a melanoma biopsy)
CBRC016 = tested on: CBRC016 (line from a melanoma biopsy)
CBRC017 = tested on: CBRC017 (line from a melanoma biopsy)
CBRC034 = tested on: CBRC034 (line from a melanoma biopsy)
COLO792 = tested on: COLO792
COLO800 = tested on: COLO800
COLO829 = tested on: COLO829
G361 = tested on: G361
IPC-298 = tested on: IPC-298
IST-MEL1 = tested on: IST-MEL1
LB2518-MEL = tested on: LB2518-MEL
LOXIMVI = tested on: LOXIMVI
MEL-HO = tested on: MEL-HO

Row | Structure (SMILES) | cleaved PARP positive nuclei fraction (501Mel) | cleaved PARP positive nuclei fraction (A101D) | cleaved PARP positive nuclei fraction (A2058) | cleaved PARP positive nuclei fraction (A375) | cleaved PARP positive nuclei fraction (C32) | cleaved PARP positive nuclei fraction (CBRC008) | cleaved PARP positive nuclei fraction (CBRC014) | cleaved PARP positive nuclei fraction (CBRC016) | cleaved PARP positive nuclei fraction (CBRC017) | cleaved PARP positive nuclei fraction (CBRC034) | cleaved PARP positive nuclei fraction (COLO792) | cleaved PARP positive nuclei fraction (COLO800) | cleaved PARP positive nuclei fraction (COLO829) | cleaved PARP positive nuclei fraction (G361) | cleaved PARP positive nuclei fraction (IPC-298) | cleaved PARP positive nuclei fraction (IST-MEL1) | cleaved PARP positive nuclei fraction (LB2518-MEL) | cleaved PARP positive nuclei fraction (LOXIMVI) | cleaved PARP positive nuclei fraction (MEL-HO)
1 | C[C@@H](N)c1ccc(C(=O)Nc2ccnc3[nH]ccc23)cc1 + NC1(c2ccc(-c3nc4ccn5c(=O)[nH]nc5c4cc3-c3ccccc3)cc2)CCC1 [MK2206] (first compound 0.4 µM, partner dose 0.4 µM) | 267% | 47.9% | 63.1% | 101% | 103% | 158% | 117% | 147% | 123% | 121% | 203% | 39.5% | 105% | 215% | 127% | 91.7% | 294% | 182% | 55.9%
2 | CCCCCCCCc1ccc(CCC(N)(CO)CO)cc1 [fingolimod] + C[C@]1(c2nc3c(C(N)=O)cccc3[nH]2)CCCN1 [Veliparib] (first compound 2 µM, partner dose 1.4 µM) | 265% | 105% | 132% | 766% | 89.1% | 48.4% | 109% | 113% | 104% | 39% | 55.8% | 107% | 139% | 84.2% | 84.1% | 272% | 122% | 124% | 23.3%
3 | CS(=O)(=O)c1ccc(C(=O)Nc2ccc(Cl)c(-c3ccccn3)c2)c(Cl)c1 [vismodegib] + C#Cc1cccc(Nc2ncnc3cc(OCCOC)c(OCCOC)cc23)c1 [erlotinib] (first compound 1 µM, partner dose 0.8 µM) | 93.1% | 108% | 151% | 69.1% | 81.5% | 103% | 101% | 77% | 89% | 58.1% | 91.6% | 47.3% | 93.2% | 69.7% | 30.1% | 137% | 105% | 37.6% | 222%
4 | CS(=O)(=O)c1ccc(C(=O)Nc2ccc(Cl)c(-c3ccccn3)c2)c(Cl)c1 [vismodegib] + Cn1c(=O)n(-c2ccc(C(C)(C)C#N)cc2)c2c3cc(-c4cnc5ccccc5c4)ccc3ncc21 [NVP-BEZ235] (first compound 1 µM, partner dose 0.004 µM) | 77.5% | 45.2% | 99.9% | 102% | 82.1% | 79.2% | 72.1% | 151% | 90% | 68.9% | 92% | 98.2% | 119% | 183% | 82.2% | 185% | 52.9% | 137% | 149%
5 | NC1(c2ccc(-c3nc4ccn5c(=O)[nH]nc5c4cc3-c3ccccc3)cc2)CCC1 + Cn1c(=O)n(-c2ccc(C(C)(C)C#N)cc2)c2c3cc(-c4cnc5ccccc5c4)ccc3ncc21 [NVP-BEZ235] (first compound 0.4 µM, partner dose 0.004 µM) | 96.7% | 118% | 104% | 547% | 84% | 150% | 84% | 43.9% | 74.4% | 37.1% | 294% | 40.1% | 189% | 136% | 205% | 230% | 68.1% | 46.5% | 108%
6 | CCN(CC)CCNC(=O)c1c(C)[nH]c(/C=C2\C(=O)Nc3ccc(F)cc32)c1C [sunitinib] + CCCCCCCCc1ccc(CCC(N)(CO)CO)cc1 [fingolimod] (first compound 0.4 µM, partner dose 2 µM) | 106% | 148% | 74.6% | 173% | 87.8% | 44.6% | 108% | 64.6% | 102% | 69.8% | 154% | 136% | 172% | 91.9% | 42.8% | 31.2% | 48.9% | 45.4% | 32.1%
7 | COc1ccc(C2=N[C@@H](c3ccc(Cl)cc3)[C@@H](c3ccc(Cl)cc3)N2C(=O)N2CCNC(=O)C2)c(OC(C)C)c1 [Nutlin-3] + Nc1ncn([C@H]2C[C@H](O)[C@@H](CO)O2)c(=O)n1 [decitabine] (first compound 0.1 µM, partner dose 0.1 µM) | 91.3% | 50.2% | 251% | 48.7% | 85.1% | 78.1% | 98% | 124% | 172% | 77.8% | 43.5% | 143% | 101% | 186% | 249% | 73.9% | 142% | 78.9% | 238%
8 | Cn1cnc2c(F)c(Nc3ccc(Br)cc3Cl)c(C(=O)NOCCO)cc21 [selumetinib] + NC(=O)c1ccc(N(C(N)=O)c2c(F)cccc2F)nc1-c1ccc(F)cc1F [VX702] (first compound 0.015 µM, partner dose 0.4 µM) | 575% | 50.6% | 67.5% | 317% | 371% | 114% | 111% | 172% | 155% | 167% | 65.6% | 69.2% | 53.9% | 150% | 90.9% | 81.7% | 177% | 97.4% | 131%
9 | COc1ccc(C2=N[C@@H](c3ccc(Cl)cc3)[C@@H](c3ccc(Cl)cc3)N2C(=O)N2CCNC(=O)C2)c(OC(C)C)c1 [Nutlin-3] + CO[C@H]1C[C@@H]2CC[C@@H](C)[C@@](O)(O2)C(=O)C(=O)N2CCCC[C@H]2C(=O)O[C@H]([C@H](C)C[C@@H]2CC[C@@H](OCCO)[C@H](OC)C2)CC(=O)[C@H](C)/C=C(\C)[C@@H](O)[C@@H](OC)C(=O)[C@H](C)C[C@H](C)/C=C/C=C/C=C/1C [everolimus] (first compound 0.1 µM, partner dose 0.02 µM) | 1010% | 111% | 57.5% | 542% | 86.3% | 87.9% | 94.5% | 106% | 217% | 98.4% | 83.8% | 88.9% | 46.3% | 95.5% | 119% | 128% | 147% | 244% | 273%
10 | NC1(c2ccc(-c3nc4ccn5c(=O)[nH]nc5c4cc3-c3ccccc3)cc2)CCC1 + COc1ccc(Cl)c(Nc2nc3ccccc3nc2NS(=O)(=O)c2cccc(NC(=O)C(C)(C)N)c2)c1 [XL147] (first compound 0.4 µM, partner dose 0.8 µM) | 78% | 159% | 73.1% | 223% | 44.1% | 161% | 111% | 160% | 116% | 85% | 157% | 102% | 213% | 130% | 96.3% | 108% | 251% | 15.4% | 94.6%
11 | COc1ccc(C2=N[C@@H](c3ccc(Cl)cc3)[C@@H](c3ccc(Cl)cc3)N2C(=O)N2CCNC(=O)C2)c(OC(C)C)c1 [Nutlin-3] + Cc1cc(Nc2cc(N3CCN(C)CC3)nc(/C=C/c3ccccc3)n2)n[nH]1 [ENMD2076] (first compound 0.1 µM, partner dose 0.04 µM) | 71.5% | 48.8% | 46.2% | 101% | 83.5% | 75.2% | 85.4% | 121% | 90.1% | 97.9% | 51.2% | 132% | 85.7% | 92.6% | 285% | 67.9% | 63.9% | 190% | 145%
12 | CCCCCCCCc1ccc(CCC(N)(CO)CO)cc1 [fingolimod] + CNC(=O)c1cc(Oc2ccc(NC(=O)Nc3ccc(Cl)c(C(F)(F)F)c3)cc2)ccn1 [sorafenib] (first compound 2 µM, partner dose 0.4 µM) | 171% | 190% | 37.5% | 235% | 80.3% | 51.9% | 97.5% | 65.1% | 140% | 90.6% | 85.4% | 158% | 37.1% | 142% | 89.3% | 70.1% | 96.6% | 105% | 184%
13 | CCCCCCCCc1ccc(CCC(N)(CO)CO)cc1 [fingolimod] + Cn1c(Nc2ccc(C(F)(F)F)cc2)nc2cc(Oc3ccnc(-c4ncc(C(F)(F)F)[nH]4)c3)ccc21 [CHIR265] (first compound 2 µM, partner dose 0.08 µM) | 1210% | 220% | 325% | 634% | 105% | 106% | 131% | 71.6% | 150% | 41.4% | 252% | 109% | 83.6% | 158% | 149% | 168% | 382% | 136% | 188%
14 | COc1ccc(C2=N[C@@H](c3ccc(Cl)cc3)[C@@H](c3ccc(Cl)cc3)N2C(=O)N2CCNC(=O)C2)c(OC(C)C)c1 [Nutlin-3] + OCc1c[nH]c2ccccc12 [Indole-3-carbinol] (first compound 0.1 µM, partner dose 0.8 µM) | 62.6% | 95.6% | 137% | 106% | 216% | 154% | 89.3% | 45% | 99.2% | 52.9% | 105% | 127% | 114% | 165% | 80.3% | 93.3% | 110% | 139% | 26.7%
15 | CC1(C)CCC(c2ccc(Cl)cc2)=C(CN2CCN(c3ccc(C(=O)NS(=O)(=O)c4ccc(N[C@H](CCN5CCOCC5)CSc5ccccc5)c(S(=O)(=O)C(F)(F)F)c4)cc3)CC2)C1 + C[C@]1(c2nc3c(C(N)=O)cccc3[nH]2)CCCN1 [Veliparib] (first compound 0.4 µM, partner dose 1.4 µM) | 78.8% | 91.1% | 128% | 521% | 154% | 426% | 747% | 652% | 405% | 93.6% | 317% | 156% | 263% | 92.4% | 638% | 192% | 142% | 244% | 91%
16 | CCCCCCCCc1ccc(CCC(N)(CO)CO)cc1 [fingolimod] + OCc1c[nH]c2ccccc12 [Indole-3-carbinol] (first compound 2 µM, partner dose 0.8 µM) | 496% | 54.5% | 137% | 553% | 78.4% | 54.6% | 175% | 32.5% | 201% | 812% | 114% | 233% | 110% | 127% | 90.4% | 141% | 235% | 131% | 33.4%

Random excerpt: 2 records from the list.
Row | Structure (SMILES) | cleaved PARP positive nuclei fraction (501Mel) | cleaved PARP positive nuclei fraction (A101D) | cleaved PARP positive nuclei fraction (A2058) | cleaved PARP positive nuclei fraction (A375) | cleaved PARP positive nuclei fraction (C32) | cleaved PARP positive nuclei fraction (CBRC008) | cleaved PARP positive nuclei fraction (CBRC014) | cleaved PARP positive nuclei fraction (CBRC016) | cleaved PARP positive nuclei fraction (CBRC017) | cleaved PARP positive nuclei fraction (CBRC034) | cleaved PARP positive nuclei fraction (COLO792) | cleaved PARP positive nuclei fraction (COLO800) | cleaved PARP positive nuclei fraction (COLO829) | cleaved PARP positive nuclei fraction (G361) | cleaved PARP positive nuclei fraction (IPC-298) | cleaved PARP positive nuclei fraction (IST-MEL1) | cleaved PARP positive nuclei fraction (LB2518-MEL) | cleaved PARP positive nuclei fraction (LOXIMVI) | cleaved PARP positive nuclei fraction (MEL-HO)
4 | CS(=O)(=O)c1ccc(C(=O)Nc2ccc(Cl)c(-c3ccccn3)c2)c(Cl)c1 [vismodegib] + Cn1c(=O)n(-c2ccc(C(C)(C)C#N)cc2)c2c3cc(-c4cnc5ccccc5c4)ccc3ncc21 [NVP-BEZ235] (first compound 1 µM, partner dose 0.004 µM) | 77.5% | 45.2% | 99.9% | 102% | 82.1% | 79.2% | 72.1% | 151% | 90% | 68.9% | 92% | 98.2% | 119% | 183% | 82.2% | 185% | 52.9% | 137% | 149%
10 | NC1(c2ccc(-c3nc4ccn5c(=O)[nH]nc5c4cc3-c3ccccc3)cc2)CCC1 + COc1ccc(Cl)c(Nc2nc3ccccc3nc2NS(=O)(=O)c2cccc(NC(=O)C(C)(C)N)c2)c1 [XL147] (first compound 0.4 µM, partner dose 0.8 µM) | 78% | 159% | 73.1% | 223% | 44.1% | 161% | 111% | 160% | 116% | 85% | 157% | 102% | 213% | 130% | 96.3% | 108% | 251% | 15.4% | 94.6%
